Measured values: patent US7524849B2, “5-arylpyrimidines as anticancer agents” (Wyeth Holdings Corporation, priority 2003, dated 2009)
“And” between values parts separate entries of the source, which are not always exact repeats. Identical values can stand only once. Some entries share one result that the patent states for a list of compounds. At least one read-out could not be matched to a standard name with certainty.

What was measured:
KB-V1 cells = experiment: MTS cytotoxicity test with KB-V1 cells (very high P-glycoprotein); format: cell-based, human; conditions: IC50 on KB VI cells/IC50 on KB cells
Description: (§1) Human cancer cell lines, unless otherwise noted, are obtained from the American Type Culture Collection (Rockville, Md.). […]
(§2) The assay, which is sold in kit form by Promega (Madison, Wis.; CellTiter 96 AQueous Non-Radioactive Cell Proliferation Assay), is based on the conversion by viable cells, but not by dead cells, of the tetrazolium salt, MTS (3-(4,5-dimethylthiazol-2-yl)-5-(3-carboxymethoxyphenyl)-2-(4-sulphophenyl)-2H-tetrazolium, inner salt), into a water-soluble colored formazan which is detected by spectrophotometry. […] For the test procedure, cells are harvested by trypsinization, washed, counted and distributed to wells of 96-well flat-bottom microtiter plates at 1000 cells per well in 200 μL of medium. […]
(§3) After three days of culture with test compounds (day 5 overall), the MTS assay is done on all wells of the experimental plates. The absorbance values of the quadruplicate sample wells are averaged and divided by the average of the “time 0” values. […]

KB-8-5 cells = experiment: MTS cytotoxicity test with KB-8-5 cells (moderate P-glycoprotein); format: cell-based, human; conditions: IC50 on KB 8.5 cells/IC50 on KB cells; trifluoroacetic acid salt
Description: as §1, §2, §3

## CN(C)CCCOc1cc(F)c(-c2c(Cl)nc(N(C)C#N)nc2NCC(F)(F)F)c(F)c1 [Example 19, 4-Chloro-5-{4-[3-(dimethylamino)propoxy]-2,6-difluorophenyl}-6-[(2,2,2-trifluoroethyl)amino]pyrimidin-2-yl(methyl)cyanamide]
KB-V1 cells
  Ratio VI/KB: < 3 and 2.8

## CNc1nc(Cl)c(-c2c(F)cc(OCCCN(C)C)cc2F)c(NCC(F)(F)F)n1.O=C(O)C(F)(F)F [Example 20a, 6-Chloro-5-{4-[3-(dimethylamino)propoxy]-2,6-difluorophenyl}-N^2-methyl-N^4-(2,2,2-trifluoroethyl)pyrimidine-2,4-diamine trifluoroacetic acid salt]
KB-8-5 cells
  Ratio 8.5/KB: < 3 and 2.2
